Source: patent US20150045409A1, “AMIDE COMPOUND AND USE THEREOF FOR PEST CONTROL” (SUMITOMO CHEMICAL COMPANY, LIMITED, priority 2012, published 2015)
Some of these results come from one statement about several compounds together.

Tested on: adult common house mosquitos
Experiment: Spray knockdown test on adult common house mosquitos (Test Examples 5, 6)
Type: in vivo
Conditions: active ingredient 0.1% w/v oil solution, 0.5 ml sprayed, counted after 15 minutes
Procedure: (§1) The formulations of Compounds (2), (7), (48) and (49) of the present invention obtained in Formulation Example 7 were diluted with a mixture solution with a ratio of isopropyl alcohol/deodorized kerosene of 1/9, so as to have a concentration of active ingredient of 0.1% w/v, to prepare a test drug solution.
Ten adult common house mosquitos were released in a polyethylene cup (a bottom diameter of 10.6 cm) which was then capped with 16-mesh nylon gauze. The polyethylene cup was placed on the bottom of a test chamber (bottom: 46 cm×46 cm, height: 70 cm). From a height of 30 cm above the upper surface of the polyethylene cup, 0.5 ml of the test drug solution was sprayed using a spray gun (a spraying pressure of 0.4 kg/cm^2). Immediately after spraying, the cup was taken out from the test container, and after 15 minutes, the number of knockdown insects was counted to obtain a knockdown rate. The knockdown rate was calculated by the following equation.
Knockdown Rate(%)=(Number of Knockdown Insects/Number of Tested Insects)×100
as §1, with “Each of the” for “The”, “(19)” for “(2), (7), (48)”, “(40) to (42)” for “(49)”, “was” for “were”, “0.02%” for “0.1%”
The test was performed in the same manner as in Test Example 5.

SMILES | knockdown rate [%]
CCCCCC/C=C/C(=O)NCC1(CC)COCOC1 [Compound (48), (E)-N-(5-ethyl-1,3-dioxan-5-ylmethyl)-2-nonenamide] | ≥ 80
CCCCCC/C=C/C(=O)NCC1CCOC1 (stereo not shown) [Compound (2), (E)-N-(tetrahydrofuran-3-ylmethyl)-2-nonenamide] | ≥ 80
CCCCCC/C=C(\F)C(=O)NCC1CCOC1 (stereo not shown) [Compound (7), (Z)—N-(tetrahydrofuran-3-ylmethyl)-2-fluoro-2-nonenamide] | ≥ 80
CCCCCC/C=C/C(=O)NCC1CCSCC1 [Compound (49), (E)-N-(tetrahydrothiopyran-4-ylmethyl)-2-nonenamide] | ≥ 80
